Measured values published in patent US12029738B2, “Antiproliferative compounds and methods of use thereof” (Celgene Corporation, priority 2017, dated 2024).
At least one structure is not confirmed: it was looked up by name or label, or the drawing left a doubt.

System: MM cell lines H929-1051, KMS11, KMS-12PE, L363, OPM-P10, RPMI8226
Experiment: Combination with small molecule inhibitors, synergy (Cell Titer-Glo, 3 days)
Assay type: cell-based, human
Conditions: Highest Single Agent method, 6 MM cell lines
Protocol: The effect of combining treatment with Compound 2 and small molecule inhibitors with various mechanisms was evaluated in a panel of MM cell lines. Thirteen small molecule inhibitors were selected for combination studies with Compound 2 based on their preclinical and/or activity against MM. The cell lines H929-1051, KMS11, KMS-12PE, L363, OPM-P10, and RPMI8226 were selected for this study to represent the different genetic clustering groups across MM cell lines. […] Combination agents were dosed in a 6 point dose-response curve (DRC) at a 1:3 dilution, Compound 2 was dosed in a 10 point DRC, also at a 1:3 dilution. The combination experiments were run twice, each time with replicate data on separate plates. Compounds were pre-spotted into the appropriate wells of 384-well plates using an acoustic dispenser. All MM cell lines were cultured in an incubator at 37° C. with 5% CO2 using the indicated cell culture media containing 1× Penicillin-Streptomycin. […] After 3 days, cells were assessed for their level of ATP content via Cell Titer-Glo measured on a luminescence detector (PerkinElmer Envision).
The Highest Single Agent (HAS) method was used to detect synergy in the dose response curve data. Combinations were analyzed from a response surface perspective. […]

## C[C@@H]1C[C@H]2[C@@H]3CCC4=CC(=O)C=C[C@]4(C)[C@@]3(F)[C@@H](O)C[C@]2(C)[C@@]1(O)C(=O)CO [Dexamethasone, dexamethasone]
  synergistic activity in combination with Compound 2 (cell lines): significant synergy in combination with Compound 2 in five out of the six cell lines tested
